Experimental findings from PubChem BioAssay AID2685 (National Center for Advancing Translational Sciences (NCATS), 2010) are described below.

The other results are listed elsewhere or left out. These are further read-outs of the screen, such as a control signal, another cell line or another target. No call is given for them. Most of these compounds were active or inconclusive in the main read-out, so they are no random draw. Potencies come from curve fits of mixed quality, noted in brackets. Where a SMILES comes first, the peptide text is derived from it. The star is where a group is joined. Boc = CC(C)(C)OC(=O)*

The nature of this assay: qHTS Assay for Lipid Storage Modulators in Drosophila S3 Cells.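 On cell number change: cells counted by Cell Tracker Red CMTPX staining in the red channel.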 The following applies: BODIPY lipid droplet fluorescence, 18-24 h; for cell number change: measured here: cell count max response, cells fed with added oleic acid. In outline: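 Drosophila S3 cells got compounds at several concentrations plus oleic acid (400 uM solution). Laser-scanning cytometry with 488 nm excitation read lipid droplets at 500-530 nm and cells at 575-640 nm. Percent activity was relative to 20 uM Triacsin C.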
On the technique in general: In qHTS, concentration-response curves come from the screen itself.

Setting [1] is: measured here: cell number channel AC50, cells fed with added oleic acid.
[2] abbreviates: measured here: lipid fluorescence (Fed channel) AC50, cells fed with added oleic acid.

In the case of `CSc1nnc2c(n1)OC(c1ccccn1)N(C(C)=O)c1ccccc1-2` (stereo not given), the cell number change came to 1.83%. Under setting [1], the half-maximal activity concentration (AC50) (as a rule, the concentration at which the activity in the assay is half-maximal) is 3.16 µM [falling, single point]. Besides, the half-maximal activity concentration (AC50) under setting [2] was 3.55 µM [falling, single point].

Turning to `Cc1ccc2nc(-c3cccc(NC(=O)c4ccco4)c3)[nH]c2c1`, under setting [2], the concentration at half-maximal activity (AC50) was 6.51 µM [rising, partial curve, poor fit].

For the compound `Clc1ccc(CSc2nnc(-c3cccnc3)n2Cc2ccco2)c(Cl)c1`, the AC50 is 1.84 µM [rising, single point] under setting [1] and 29.1 µM [rising, single point] under setting [2].

With `O=C(OCc1nc2ccccc2[nH]1)C12CC3CC(CC(C3)C1)C2`, the cell number change was -69.7%. The concentration at half-maximal activity (AC50) under setting [1] is 16.4 µM [falling, partial curve, poor fit]. In addition, the AC50 under setting [2] was 32.6 µM [falling, partial curve, poor fit].

Regarding `Cc1cc(C)c(C)c(OCC(=O)O/N=C(\N)c2ccncc2)c1`, the cell number change worked out at 10.5%.

In the case of `Cc1cc(OCC(=O)OCC(=O)NCc2ccco2)ccc1Cl`, the cell number change was -8.84%.

For the compound `CN(C)C=NC(=O)c1cc(C(=O)c2ccccc2Cl)c[nH]1`, the cell number change came to 40%. In addition, the AC50 under setting [1] was 0.326 µM [rising, full curve].

`CC(NC(=O)Nc1ccc(F)cc1F)c1ccncc1` (stereo not given): the cell number change amounted to 6.35%.

In the case of `O=[N+]([O-])c1ccc2c(c1)nc(CO)n2Cc1ccccc1`, the cell number change is -7.37%.

As for `CCN(CC)C(=O)c1[nH]cnc1C(=O)Nc1cccc(Cl)c1`, the cell number change was -31%. The half-maximal activity concentration (AC50) under setting [1] was 25.9 µM [falling, single point].

As to `COCCNC(=O)c1cc(-c2ccccn2)nc2ccc(S(=O)(=O)N3CCC(C)CC3)cc12`, under setting [2], the AC50 is 29.1 µM [rising, single point].

Turning to `C=CCOc1ccc(NC(=O)C(=O)NCCCn2ccnc2)cc1`, the cell number change was -23.7%.

As to `CC(=O)Nc1ccc(S(=O)(=O)Nc2cc(C)cn(Cc3ccccc3)c2=O)cc1`, the cell number change came out at 55.2%. The AC50 under setting [1] was 20.6 µM [rising, single point]. Also, the half-maximal activity concentration (AC50) under setting [2] is 0.651 µM [falling, partial curve, poor fit].

With `COC(=O)c1sccc1NC(=O)C1C2C=CC(O2)C1C(=O)O` (stereo not given), the cell number change was -2.29%. Besides, under setting [2], the AC50 is 0.259 µM [falling, full curve, poor fit].

On to `CC(=O)Nc1cccc(Oc2ccc([N+](=O)[O-])cc2Cl)c1`, for which the cell number change came out at 37.9%. Also, the half-maximal activity concentration (AC50) under setting [1] was 32.6 µM [rising, single point].

Turning to `COc1cc(C2C(C(=O)c3ccc(C)o3)=C(O)C(=O)N2c2cc(C)on2)cc(OC)c1OC` (stereo not given), the cell number change was -22.2%. Besides, the AC50 under setting [2] is 0.00517 µM [rising, full curve, poor fit].

`N#Cc1ccc(C(=O)CN2CCN(c3ccccc3)CC2)cc1`: the cell number change was -3.85%.

For `CCc1cccc(C)c1NC(=O)Cc1ccsc1`, the cell number change is -4.17%.

As for `Cc1ccc(C)c(SCC(=O)OC/C(O)=C(\C#N)c2nc3ccccc3[nH]2)c1`, the cell number change is -29.6%. Also, the AC50 under setting [2] was 29.1 µM [falling, single point].

For the compound `CC(=O)Nc1c(O)n(C)c2ccccc12`, the cell number change is -8.01%. Moreover, under setting [1], the AC50 is 0.651 µM [falling, partial curve, poor fit]. For the same compound, the AC50 under setting [2] was 0.0651 µM [falling, full curve, poor fit].

With `Cc1cc2nc(N3C(=O)CNC3=S)sc2cc1C`, the cell number change is -30.1%. Under setting [2], the concentration at half-maximal activity (AC50) is 20.6 µM [falling, partial curve].

For `COc1cc2cc(CN(Cc3cccnc3)C(=O)NCc3ccccc3)c(=O)[nH]c2cc1OC`, the cell number change stood at 22.9%. Besides, the AC50 under setting [2] was 0.146 µM [rising, full curve, poor fit].

In the case of `COCCCNC(=O)c1ccc2c(c1)OCO2`, the cell number change turned out to be 87.9%. Besides, the half-maximal activity concentration (AC50) under setting [1] was 29.1 µM [rising, partial curve, poor fit]. Further, the AC50 under setting [2] is 29.1 µM [rising, partial curve].

As for `O=C(N/N=C1\CC(c2ccccc2)Oc2ccccc21)c1cccnc1` (stereo not given), the cell number change is -8.27%. In addition, under setting [2], the half-maximal activity concentration (AC50) was 0.206 µM [rising, full curve, poor fit].

Take `CCOc1ncccc1C(=O)NCc1ccccc1`: the cell number change is 2.67%.

On to `O=C(Nc1cccc(C(F)(F)F)c1)NC1CCN(S(=O)(=O)c2ccc(F)cc2)CC1`, for which, under setting [1], the AC50 was 2.06 µM [rising, partial curve].

Turning to `CCc1ccc(C2=NN(CCC(=O)NC3CCCCCC3)C(=O)CC2)cc1`, the cell number change was -28.1%. For the same compound, the half-maximal activity concentration (AC50) under setting [2] was 0.092 µM [rising, full curve].

For `O=C(CCC(=O)N1CCCC1)Nc1nnc(C2CCCCC2)s1`, the cell number change came out at 9.71%. For the same compound, the concentration at half-maximal activity (AC50) under setting [2] was 3.66 µM [rising, single point].

On to `CCC(=O)Nc1nnc(S(=O)(=O)N(CC)c2cc(C)cc(C)c2)s1`, for which the cell number change turned out to be 23.4%. Also, the half-maximal activity concentration (AC50) under setting [2] is 29.1 µM [rising, single point].

In the case of `Cn1c(NC(=O)c2ccco2)c(-c2ccccc2)c(=O)c2ccccc21`, the half-maximal activity concentration (AC50) under setting [1] was 0.82 µM [falling, partial curve].

`CS(=O)c1ccccc1COC(=O)Nc1ccccc1` (stereo not given): the cell number change came to 56.1%. Also, the concentration at half-maximal activity (AC50) under setting [1] was 29.1 µM [rising, partial curve, poor fit]. In addition, the concentration at half-maximal activity (AC50) under setting [2] was 0.411 µM [rising, partial curve].

For `COc1ccc(OCCOC(=O)c2ccc(-n3cnnn3)cc2)cc1`, the cell number change amounted to 2.47%. Moreover, the AC50 under setting [2] was 2.31 µM [rising, single point].

`O=C(Nc1cccc(S(=O)(=O)N2CCCCC2)c1)C1CC(=O)N(c2ccc3c(c2)OCCO3)C1` (stereo not given): the cell number change was -22.6%.

Turning to `COC(=O)C(Cc1ccccc1)NC(=O)CNC(=O)c1sc2ccccc2c1Cl` (stereo not given), the half-maximal activity concentration (AC50) under setting [2] is 1.16 µM [falling, single point].

Consider `CCN(CC)C(=S)NC(=O)C12CC3CC(CC(C3)C1)C2`, for which the cell number change is -21.8%. Besides, under setting [1], the half-maximal activity concentration (AC50) was 0.116 µM [falling, full curve, poor fit]. Also, the AC50 under setting [2] was 0.103 µM [falling, full curve, poor fit].

`Cc1ccccc1-c1noc(CCC(=O)NCC2CCCO2)n1` (stereo not given): the cell number change turned out to be 22.7%.

Turning to `Cc1[nH]c2ccc(C(=O)N3CCN(Cc4ccccc4)CC3)cc2c1C`, the cell number change stood at 36.9%. Further, under setting [1], the AC50 is 20.6 µM [rising, single point].

Regarding `O=C1C(C=NCCCN2CCCC2=O)=C(O)c2ccccc21`, the cell number change was -7.49%. The AC50 under setting [1] is 6.51 µM [falling, single point].

Take `CCOc1ccccc1NS(=O)(=O)c1cccc2nsnc12`: the AC50 is 0.58 µM [falling, single point] under setting [1] and 29.1 µM [falling, single point] under setting [2].

As to `CC(=O)Nc1sc2c(c1C(c1ccccc1)N1CCOCC1)CCCC2` (stereo not given), the AC50 under setting [2] is 6.51 µM [rising, single point].

Regarding `NC(=O)C(c1ncc(C(F)(F)F)cc1Cl)c1c(Cl)cccc1Cl` (stereo not given), the cell number change is -3.16%. Besides, the AC50 under setting [2] was 0.231 µM [falling, full curve, poor fit].

Consider `Cc1ccccc1C1NC(=O)Cc2ccccc21` (stereo not given), for which the cell number change is 86.1%. The half-maximal activity concentration (AC50) under setting [1] was 20.6 µM [rising, partial curve]. Under setting [2], the AC50 was 0.184 µM [rising, full curve].

In the case of `O=C(CCl)NCCNC(=O)c1cc(OCC(F)(F)F)ccc1OCC(F)(F)F`, the cell number change is 24.1%. For the same compound, under setting [1], the concentration at half-maximal activity (AC50) was 0.00461 µM [rising, full curve, poor fit].

For `O=C1CC(c2cccnc2)c2cc3c(cc2N1)OCCO3` (stereo not given), the cell number change came out at 9.06%. For the same compound, the AC50 under setting [1] was 0.116 µM [rising, full curve, poor fit]. Also, under setting [2], the AC50 is 0.13 µM [rising, full curve, poor fit].

`Cc1ccc(-c2nnn(CC(=O)N3CCCCC3)n2)o1`: the cell number change was -81%. Moreover, the AC50 under setting [1] was 3.26 µM [falling, partial curve].

As to `O=C(O)CN1C(=O)c2cccc3c(Br)ccc1c23`, under setting [2], the concentration at half-maximal activity (AC50) is 5.8 µM [rising, full curve].

`CN1CCC(=O)N([C@H](CSc2ccccc2)Cc2ccccc2)CC1`: the cell number change is 21%.

With `COc1cccc(C2CC(c3ccccc3)=NN2S(=O)(=O)c2ccc(C)cc2)c1OC` (stereo not given), the cell number change is 20.6%. Also, the AC50 under setting [1] was 3.26 µM [rising, full curve, poor fit].

For `CCOC(=O)C1=C(C)n2c(s/c(=C3\C(=O)Nc4ccccc43)c2=O)=NC1c1ccc(OC)cc1` (stereo not given), the AC50 under setting [2] was 2.59 µM [falling, single point].

For `CCOC(=O)C1CCCN(C(=O)C(=O)c2cn(CC(=O)N3CCOCC3)c3ccccc23)C1` (stereo not given), the cell number change is -12.2%. The AC50 under setting [2] was 8.2 µM [falling, partial curve].

For `COc1cc(OC)cc(C(=O)N/N=C/c2ccc(OC)c(COc3ccc(F)cc3)c2)c1`, the cell number change was -18%. For the same compound, the half-maximal activity concentration (AC50) under setting [2] is 29.1 µM [falling, partial curve, poor fit].

As to `CCC(C)C(NC(=O)OC(C)(C)C)C(=O)NC(C)C(N)=O` (stereo not drawn) (Boc-Ile-Ala-NH2; configuration not given here), the cell number change was determined as 22.6%. Moreover, the AC50 under setting [2] is 0.731 µM [rising, full curve, poor fit].

On to `Cc1ccc(CNC(=O)c2ccc(N3CCC4(CC3)CC(c3ccccc3)=NO4)c(NC(=O)c3c(Cl)cccc3Cl)c2)cc1`, for which the cell number change was -23.4%. Under setting [2], the half-maximal activity concentration (AC50) was 29.1 µM [falling, single point].

With `CC(C)c1ccc(NC2CCCN(C(=O)CCN3CCCCO3)C2)cc1` (stereo not given), the cell number change was found to be 37.2%. Further, the AC50 under setting [1] was 0.206 µM [rising, full curve, poor fit]. The AC50 under setting [2] is 0.092 µM [rising, full curve].

`O=C(Nc1ccc(F)c(F)c1)c1cnc(-c2ccccc2)nc1-c1ccccc1`: the cell number change is -4.26%. Under setting [2], the AC50 was 6.51 µM [rising, single point].

With `N/C(=N\O)c1ccc(NC(=O)c2ccc(Br)o2)cc1`, the cell number change worked out at 14.1%. The concentration at half-maximal activity (AC50) under setting [2] was 18.4 µM [falling, single point].

In the case of `CN(Cc1ccc(C(F)(F)F)cc1)C(=O)c1ccc2ccccc2n1`, the cell number change is -3.17%.

As to `COc1ccc(Br)c(-c2nnc(CS(=O)(=O)c3ccccc3)o2)c1`, the cell number change turned out to be 10.3%. The half-maximal activity concentration (AC50) under setting [2] was 0.00411 µM [rising, full curve, poor fit].

On to `CC1C(=O)CCN(C(C)C)C1C` (stereo not given), for which the cell number change was -55.1%.

Regarding `CC/C(=N\NC(=O)c1ccc2c(c1)OCO2)C12CC3CC(CC(C3)C1)C2`, the concentration at half-maximal activity (AC50) under setting [2] was 0.651 µM [rising, single point].

As for `COc1ccc(C(=O)n2cnc3ccccc32)cc1[N+](=O)[O-]`, the cell number change was -4.46%. In addition, the half-maximal activity concentration (AC50) under setting [2] is 14.6 µM [rising, partial curve].
